Results taken from the supplement of paper PMC10060354, “Discovery of a small molecule ligand of FRS2 that inhibits invasion and tumor growth” (Cellular Oncology, 2022).
Repeats are few or missing, and single values can be far off.

Sequences of proteins named here, by UniProt entry; tags and fusion partners are left off. A change or cut given only in a name is not applied to a line headed by its entry.
UniProt Q9Y6G5, whole entry: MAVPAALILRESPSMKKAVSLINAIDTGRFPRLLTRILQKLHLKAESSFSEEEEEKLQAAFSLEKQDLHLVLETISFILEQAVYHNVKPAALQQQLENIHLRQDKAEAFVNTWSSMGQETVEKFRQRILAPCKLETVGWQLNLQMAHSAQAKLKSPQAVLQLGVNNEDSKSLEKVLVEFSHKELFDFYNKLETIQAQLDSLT
UniProt Q15650: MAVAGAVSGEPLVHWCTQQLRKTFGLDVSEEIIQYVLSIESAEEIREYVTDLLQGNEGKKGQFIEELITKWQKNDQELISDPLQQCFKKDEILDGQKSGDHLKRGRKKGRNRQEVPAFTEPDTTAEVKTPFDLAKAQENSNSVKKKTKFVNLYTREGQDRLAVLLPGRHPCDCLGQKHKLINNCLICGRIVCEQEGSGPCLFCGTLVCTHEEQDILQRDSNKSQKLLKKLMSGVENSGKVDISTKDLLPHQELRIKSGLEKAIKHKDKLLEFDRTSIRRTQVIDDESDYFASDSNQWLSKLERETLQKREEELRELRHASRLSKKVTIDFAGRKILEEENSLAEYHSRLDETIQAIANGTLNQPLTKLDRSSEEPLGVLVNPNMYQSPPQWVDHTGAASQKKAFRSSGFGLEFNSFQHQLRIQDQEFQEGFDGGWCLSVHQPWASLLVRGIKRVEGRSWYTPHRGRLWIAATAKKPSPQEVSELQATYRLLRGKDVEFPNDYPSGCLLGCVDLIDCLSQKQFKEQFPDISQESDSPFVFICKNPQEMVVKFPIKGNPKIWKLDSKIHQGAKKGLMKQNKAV
UniProt Q9Y5K3: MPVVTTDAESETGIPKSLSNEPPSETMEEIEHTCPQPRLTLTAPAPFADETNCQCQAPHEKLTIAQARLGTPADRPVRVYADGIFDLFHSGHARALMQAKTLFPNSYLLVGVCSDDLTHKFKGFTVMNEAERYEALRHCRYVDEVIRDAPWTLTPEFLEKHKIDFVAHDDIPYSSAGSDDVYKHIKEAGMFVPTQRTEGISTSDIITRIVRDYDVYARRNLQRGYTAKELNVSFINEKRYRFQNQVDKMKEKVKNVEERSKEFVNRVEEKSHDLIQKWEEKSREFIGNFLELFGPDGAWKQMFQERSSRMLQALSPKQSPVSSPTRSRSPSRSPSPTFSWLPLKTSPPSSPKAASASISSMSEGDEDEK
UniProt Q9NS91, whole entry: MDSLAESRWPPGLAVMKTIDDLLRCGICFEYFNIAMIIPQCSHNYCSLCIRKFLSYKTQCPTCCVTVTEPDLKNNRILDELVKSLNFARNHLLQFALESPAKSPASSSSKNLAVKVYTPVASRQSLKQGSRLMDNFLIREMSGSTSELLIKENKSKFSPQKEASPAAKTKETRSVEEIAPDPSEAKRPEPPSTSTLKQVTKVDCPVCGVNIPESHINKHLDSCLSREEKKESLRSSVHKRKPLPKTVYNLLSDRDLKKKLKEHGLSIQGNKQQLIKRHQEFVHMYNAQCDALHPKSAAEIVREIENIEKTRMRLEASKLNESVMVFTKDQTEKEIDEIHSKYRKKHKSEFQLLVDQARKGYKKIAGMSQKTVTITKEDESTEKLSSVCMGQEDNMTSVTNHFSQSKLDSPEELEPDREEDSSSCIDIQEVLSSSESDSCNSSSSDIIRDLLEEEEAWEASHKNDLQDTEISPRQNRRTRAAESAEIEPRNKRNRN
UniProt Q9Y5U8: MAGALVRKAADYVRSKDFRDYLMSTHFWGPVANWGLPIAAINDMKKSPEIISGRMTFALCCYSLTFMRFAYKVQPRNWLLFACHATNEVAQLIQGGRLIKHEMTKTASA
UniProt Q9H0L4: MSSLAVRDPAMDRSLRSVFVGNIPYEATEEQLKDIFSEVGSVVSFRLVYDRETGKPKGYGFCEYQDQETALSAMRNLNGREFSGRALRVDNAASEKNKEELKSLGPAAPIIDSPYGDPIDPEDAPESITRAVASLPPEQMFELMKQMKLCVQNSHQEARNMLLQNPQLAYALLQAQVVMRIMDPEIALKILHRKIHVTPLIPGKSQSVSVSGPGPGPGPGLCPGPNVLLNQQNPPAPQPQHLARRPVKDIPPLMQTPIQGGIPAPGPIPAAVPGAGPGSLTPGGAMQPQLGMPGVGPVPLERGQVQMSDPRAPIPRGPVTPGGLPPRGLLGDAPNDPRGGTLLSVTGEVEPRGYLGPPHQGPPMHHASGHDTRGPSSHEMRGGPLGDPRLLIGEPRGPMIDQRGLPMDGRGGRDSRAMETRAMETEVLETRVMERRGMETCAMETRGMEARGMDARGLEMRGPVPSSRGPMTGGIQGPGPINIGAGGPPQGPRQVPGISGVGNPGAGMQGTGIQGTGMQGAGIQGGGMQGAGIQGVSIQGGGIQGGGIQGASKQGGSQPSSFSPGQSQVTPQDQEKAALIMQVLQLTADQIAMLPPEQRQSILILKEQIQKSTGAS
UniProt Q14571, whole entry: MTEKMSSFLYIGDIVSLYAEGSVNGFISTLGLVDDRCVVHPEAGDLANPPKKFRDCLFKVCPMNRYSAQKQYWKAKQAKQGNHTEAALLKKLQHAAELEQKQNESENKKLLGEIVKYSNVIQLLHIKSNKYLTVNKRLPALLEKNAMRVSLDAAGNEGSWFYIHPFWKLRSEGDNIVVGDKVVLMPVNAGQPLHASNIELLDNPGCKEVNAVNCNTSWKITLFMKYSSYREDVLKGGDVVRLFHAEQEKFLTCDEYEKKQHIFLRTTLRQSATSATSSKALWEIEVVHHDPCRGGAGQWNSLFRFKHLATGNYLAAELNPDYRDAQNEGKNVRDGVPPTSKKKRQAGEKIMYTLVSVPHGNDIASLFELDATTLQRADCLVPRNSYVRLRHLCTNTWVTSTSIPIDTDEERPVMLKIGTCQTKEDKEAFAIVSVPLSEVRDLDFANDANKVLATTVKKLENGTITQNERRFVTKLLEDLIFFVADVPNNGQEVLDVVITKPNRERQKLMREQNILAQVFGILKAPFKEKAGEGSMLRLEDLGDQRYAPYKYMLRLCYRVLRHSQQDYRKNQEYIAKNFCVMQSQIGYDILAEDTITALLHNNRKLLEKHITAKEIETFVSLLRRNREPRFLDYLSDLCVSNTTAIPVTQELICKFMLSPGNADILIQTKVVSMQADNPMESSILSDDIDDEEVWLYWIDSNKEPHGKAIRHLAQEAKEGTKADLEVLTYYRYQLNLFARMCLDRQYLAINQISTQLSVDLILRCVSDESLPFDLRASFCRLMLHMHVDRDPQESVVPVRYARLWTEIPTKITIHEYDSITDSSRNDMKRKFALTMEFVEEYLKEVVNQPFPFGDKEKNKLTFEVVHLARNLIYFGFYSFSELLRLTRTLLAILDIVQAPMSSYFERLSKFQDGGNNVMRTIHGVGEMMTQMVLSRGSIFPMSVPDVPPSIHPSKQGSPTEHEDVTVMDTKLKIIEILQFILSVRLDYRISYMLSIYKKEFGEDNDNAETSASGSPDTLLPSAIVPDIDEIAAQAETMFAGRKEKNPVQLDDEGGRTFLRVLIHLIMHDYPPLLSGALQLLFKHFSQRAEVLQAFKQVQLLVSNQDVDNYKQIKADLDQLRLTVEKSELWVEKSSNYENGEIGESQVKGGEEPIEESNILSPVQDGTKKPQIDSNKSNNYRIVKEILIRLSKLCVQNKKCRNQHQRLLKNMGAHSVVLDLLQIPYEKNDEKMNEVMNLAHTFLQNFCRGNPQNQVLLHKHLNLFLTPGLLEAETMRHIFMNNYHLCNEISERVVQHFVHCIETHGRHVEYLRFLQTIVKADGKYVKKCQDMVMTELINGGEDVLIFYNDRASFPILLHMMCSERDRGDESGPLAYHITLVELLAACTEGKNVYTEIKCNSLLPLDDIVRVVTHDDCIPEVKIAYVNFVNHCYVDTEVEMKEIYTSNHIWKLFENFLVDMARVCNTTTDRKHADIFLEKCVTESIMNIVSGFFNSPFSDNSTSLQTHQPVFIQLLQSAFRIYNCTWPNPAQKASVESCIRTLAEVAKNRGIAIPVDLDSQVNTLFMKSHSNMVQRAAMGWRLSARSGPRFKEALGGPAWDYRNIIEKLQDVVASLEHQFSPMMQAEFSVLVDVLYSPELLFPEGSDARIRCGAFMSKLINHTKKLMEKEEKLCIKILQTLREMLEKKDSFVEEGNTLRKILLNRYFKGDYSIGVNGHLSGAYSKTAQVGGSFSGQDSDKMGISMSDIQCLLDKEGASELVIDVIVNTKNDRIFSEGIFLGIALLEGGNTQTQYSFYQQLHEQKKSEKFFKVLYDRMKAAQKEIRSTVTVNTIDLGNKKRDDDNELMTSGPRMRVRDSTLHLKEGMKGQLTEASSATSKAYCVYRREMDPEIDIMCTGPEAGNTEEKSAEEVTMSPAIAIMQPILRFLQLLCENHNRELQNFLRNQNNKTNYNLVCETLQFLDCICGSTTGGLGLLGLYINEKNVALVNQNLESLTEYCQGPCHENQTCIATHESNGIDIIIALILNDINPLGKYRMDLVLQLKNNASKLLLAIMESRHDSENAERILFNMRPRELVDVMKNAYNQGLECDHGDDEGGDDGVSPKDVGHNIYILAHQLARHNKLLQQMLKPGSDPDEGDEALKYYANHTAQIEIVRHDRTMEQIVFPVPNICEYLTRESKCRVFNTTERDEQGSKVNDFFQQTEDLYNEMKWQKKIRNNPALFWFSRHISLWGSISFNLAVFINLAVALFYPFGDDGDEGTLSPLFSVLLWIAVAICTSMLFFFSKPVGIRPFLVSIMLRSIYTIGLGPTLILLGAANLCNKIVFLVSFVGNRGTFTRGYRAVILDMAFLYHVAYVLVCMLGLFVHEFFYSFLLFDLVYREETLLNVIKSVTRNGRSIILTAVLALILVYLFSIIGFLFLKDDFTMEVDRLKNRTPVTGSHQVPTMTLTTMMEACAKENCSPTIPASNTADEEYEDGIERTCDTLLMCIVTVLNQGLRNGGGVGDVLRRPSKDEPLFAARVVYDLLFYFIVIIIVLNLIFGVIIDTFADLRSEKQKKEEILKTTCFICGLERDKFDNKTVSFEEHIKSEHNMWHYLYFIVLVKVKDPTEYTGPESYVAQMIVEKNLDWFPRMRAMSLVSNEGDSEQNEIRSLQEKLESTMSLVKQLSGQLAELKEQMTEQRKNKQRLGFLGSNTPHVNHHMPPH
UniProt Q13428: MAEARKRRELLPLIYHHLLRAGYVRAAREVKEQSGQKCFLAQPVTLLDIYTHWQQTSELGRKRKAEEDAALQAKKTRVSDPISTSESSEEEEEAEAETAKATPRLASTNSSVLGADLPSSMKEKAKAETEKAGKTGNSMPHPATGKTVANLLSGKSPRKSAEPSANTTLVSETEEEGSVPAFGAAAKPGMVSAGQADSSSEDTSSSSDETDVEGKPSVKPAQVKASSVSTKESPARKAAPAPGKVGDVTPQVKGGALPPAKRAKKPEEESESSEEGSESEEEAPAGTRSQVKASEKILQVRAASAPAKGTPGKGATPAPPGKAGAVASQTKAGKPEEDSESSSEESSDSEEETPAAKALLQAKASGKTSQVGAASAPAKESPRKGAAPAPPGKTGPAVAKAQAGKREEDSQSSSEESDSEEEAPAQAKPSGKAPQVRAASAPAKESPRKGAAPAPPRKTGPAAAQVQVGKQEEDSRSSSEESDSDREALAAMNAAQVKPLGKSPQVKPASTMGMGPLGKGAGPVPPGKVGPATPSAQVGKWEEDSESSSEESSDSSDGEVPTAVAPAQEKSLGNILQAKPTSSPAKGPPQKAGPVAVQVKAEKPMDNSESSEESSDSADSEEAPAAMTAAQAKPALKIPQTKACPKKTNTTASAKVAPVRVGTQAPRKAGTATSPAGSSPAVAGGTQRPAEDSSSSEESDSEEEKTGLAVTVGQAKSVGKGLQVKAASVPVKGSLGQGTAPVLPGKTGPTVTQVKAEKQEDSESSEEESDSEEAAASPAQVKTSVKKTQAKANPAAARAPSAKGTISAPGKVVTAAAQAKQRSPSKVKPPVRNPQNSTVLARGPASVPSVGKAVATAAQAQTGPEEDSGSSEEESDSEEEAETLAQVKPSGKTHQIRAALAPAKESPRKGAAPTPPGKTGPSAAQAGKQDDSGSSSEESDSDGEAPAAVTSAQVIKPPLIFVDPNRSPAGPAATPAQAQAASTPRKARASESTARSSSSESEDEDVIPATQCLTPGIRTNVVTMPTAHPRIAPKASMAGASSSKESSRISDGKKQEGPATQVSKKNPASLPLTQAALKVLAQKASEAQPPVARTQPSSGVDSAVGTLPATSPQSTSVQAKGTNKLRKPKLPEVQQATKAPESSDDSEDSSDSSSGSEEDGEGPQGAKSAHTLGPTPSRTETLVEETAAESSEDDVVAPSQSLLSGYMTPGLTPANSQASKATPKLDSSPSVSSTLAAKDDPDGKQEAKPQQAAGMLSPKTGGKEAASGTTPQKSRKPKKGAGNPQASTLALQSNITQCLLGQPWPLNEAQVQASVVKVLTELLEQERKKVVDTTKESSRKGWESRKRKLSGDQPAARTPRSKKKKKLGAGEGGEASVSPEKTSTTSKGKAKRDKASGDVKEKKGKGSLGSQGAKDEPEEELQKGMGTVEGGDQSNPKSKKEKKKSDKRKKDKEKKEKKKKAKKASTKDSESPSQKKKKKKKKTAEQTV

Compound: [O-][N+](C(C1=C(C(O)=C2)NC(C(C=C3)=CC=C3Cl)C4C1C=CC4)=C2Cl)=O
Assay: melting temperature shift (compound 7 minus DMSO); higher = compound stabilises the protein
Settings: 10 µM
Protocol: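 Thermal proteome profiling (TMT mass spectrometry) in intact DAOY medulloblastoma cells or DAOY lysates treated with 10 µM compound 7 or DMSO, heated at 10 temperatures from 40.5 to 73.8 °C for 3 min. Melting curves were fitted with the Bioconductor TPP package, and the melting point difference between compound and vehicle is reported per protein (single curve per condition).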

[1] = system: DAOY cell lysate, treatment time: 20 min, 4 °C
[2] = system: intact DAOY cells, treatment time: 90 min, 37 °C

| Target | melting temperature shift [1] | melting temperature shift [2] |
| --- | --- | --- |
| BABAM1 (UniProt Q9NWV8) | -0.214 °C | -1.08 °C |
| UniProt Q8IYL2 | 2.31 °C |  |
| COA1 (UniProt Q9GZY4) | 0.254 °C | 0.451 °C |
| COMMD10 (UniProt Q9Y6G5) | -0.0829 °C | -0.011 °C |
| REXO4 (UniProt Q9GZR2) | 0.516 °C |  |
| PIGA (UniProt P37287) | 0.485 °C | -0.361 °C |
| DDX47 (UniProt Q9H0S4) | 0.21 °C | 0.0518 °C |
| GFM2 (UniProt Q969S9) | 1.26 °C | -0.683 °C |
| UniProt A4D1P6 | 1.54 °C | -0.161 °C |
| NCOR1 (UniProt O75376) | -1.23 °C | 1.54 °C |
| UniProt P60763 |  | 0.454 °C |
| SSFA2 (UniProt P28290) | -10.1 °C |  |
| YPEL5 (UniProt P62699) | 0.0726 °C | 1.39 °C |
| FNBP1L (UniProt Q5T0N5) | 0.87 °C | -0.242 °C |
| TRIP4 (UniProt Q15650) | -0.668 °C | 0.188 °C |
| UniProt Q68DK2 | -3.22 °C |  |
| PLS3 (UniProt P13797) | -0.852 °C | -0.0954 °C |
| UniProt Q86Y97 | 0.341 °C |  |
| UniProt Q96DT5 | -2.98 °C |  |

| Target | melting temperature shift [1] | melting temperature shift [2] |
| --- | --- | --- |
| UniProt Q68CJ9 |  | -0.343 °C |
| SNX17 (UniProt Q15036) | -0.477 °C | 1.49 °C |
| UniProt Q9Y5K3 |  | -0.458 °C |
| DNAJC25 (UniProt Q9H1X3) | 0.601 °C |  |
| RAD18 (UniProt Q9NS91) | 0.00457 °C | 0.872 °C |
| UniProt O60462 | -1.03 °C | -2.22 °C |
| MTPN (UniProt P58546) | -0.226 °C | -0.153 °C |
| PPP1R18 (UniProt Q6NYC8) |  | -7.99e-05 °C |
| UniProt Q9Y5U8 | -0.97 °C | 1.2 °C |
| CTNNBL1 (UniProt Q8WYA6) | -0.484 °C | -0.511 °C |
| PGLS (UniProt O95336) | -1.18 °C | 0.691 °C |
| UQCRFS1 (UniProt P47985) | 1.13 °C | -1.19 °C |
| AVEN (UniProt Q9NQS1) | 0.995 °C | -1.65 °C |
| CCDC94 (UniProt Q9BW85) | 0.858 °C | -0.678 °C |
| COG5 (UniProt Q9UP83) | -1.37 °C | -0.285 °C |
| UniProt Q9HCE3 | 0.978 °C |  |
| ALDH4A1 (UniProt P30038) | -0.351 °C | -1.53 °C |
| FAM118B (UniProt Q9BPY3) | 0.557 °C | 2.34 °C |
| METTL3 (UniProt Q86U44) | -1.21 °C | 0.35 °C |

Random excerpt: 3 records from the list

| Target | melting temperature shift [1] | melting temperature shift [2] |
| --- | --- | --- |
| CTNNBL1 (UniProt Q8WYA6) | -0.484 °C | -0.511 °C |
| RAD18 (UniProt Q9NS91) | 0.00457 °C | 0.872 °C |
| ALDH4A1 (UniProt P30038) | -0.351 °C | -1.53 °C |

Later entries

| Target | melting temperature shift [1] | melting temperature shift [2] |
| --- | --- | --- |
| UniProt Q15048 | -2.16 °C |  |
| CLTCL1 (UniProt P53675) |  | 0.68 °C |
| DNAJC7 (UniProt Q99615) | -0.392 °C | -1.02 °C |
| EPPK1 (UniProt P58107) | 1.34 °C |  |
| SRXN1 (UniProt Q9BYN0) | -0.26 °C |  |
| UniProt Q9ULE0 |  | 0.474 °C |
| LIG1 (UniProt P18858) | -0.402 °C | -0.492 °C |
| PAAF1 (UniProt Q9BRP4) | -1.28 °C | 0.747 °C |
| CSTF2T (UniProt Q9H0L4) | -0.768 °C | -3.11 °C |
| RPAP3 (UniProt Q9H6T3) | -0.711 °C | -0.483 °C |
| CTNNB1 (UniProt P35222) | 0.905 °C | -0.0653 °C |
| ITPR2 (UniProt Q14571) | 3.27 °C | -1.12 °C |
| KCMF1 (UniProt Q9P0J7) | 0.24 °C | 0.492 °C |
| UniProt A4FU01 |  | -0.466 °C |
| RBM27 (UniProt Q9P2N5) | -0.162 °C | -0.911 °C |
| TCOF1 (UniProt Q13428) | -0.13 °C |  |
| SORD (UniProt Q00796) | -0.862 °C | 0.323 °C |
| SHOC2 (UniProt Q9UQ13) | -0.706 °C | -0.166 °C |
| ECD (UniProt O95905) | -0.867 °C | 0.0654 °C |
